Results on 2 substances are retold here after publication PMC4655355, “Structural insights into YfiR sequestering by YfiB in Pseudomonas aeruginosa PAO1” (Scientific Reports, 2015).

Sequences of proteins named here, by UniProt entry; tags and fusion partners are left off. A change or cut given only in a name is not applied to a line headed by its entry.
UniProt Q9I4L6: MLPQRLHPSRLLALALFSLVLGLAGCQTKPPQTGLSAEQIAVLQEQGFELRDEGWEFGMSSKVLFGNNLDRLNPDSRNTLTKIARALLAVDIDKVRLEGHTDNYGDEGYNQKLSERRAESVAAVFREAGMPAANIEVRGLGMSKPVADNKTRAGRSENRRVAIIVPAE

The target in assay [1] is YfiB(27–168) (Pseudomonas aeruginosa PAO1) (UniProt Q9I4L6). The assay is described as follows: crystal structure; YfiB(27–168) alone, 1.58 Å; 0.1 M HEPES pH 7.5, 2% PEG 400, 2.0 M ammonium sulfate, 293 K; both purified.
The target in assay [2] is YfiB(59–168) (Pseudomonas aeruginosa PAO1) (UniProt Q9I4L6). The assay can be described thus: AUC; YfiB-YfiR complex at 10 mg ml^-1 in 20 mM Tris-HCl, 200 mM NaCl; 42,000 rpm, 277 K, interference detection; SEDFIT; both purified.
The target is the same in assay [3]. The assay can be described thus: crystal structure; YfiR(C71S)-YfiB(59–168) complex, 1.97 Å; proteins mixed 1:1; 0.1 M HEPES pH 7.5, 1.8 M ammonium sulfate, 293 K; both purified.
Assay [4] shares this target. The assay is described as follows: AUC; single purified proteins, 400 μL at 3 mg ml^-1 in 20 mM Tris-HCl, 200 mM NaCl; 42,000 rpm, 277 K, interference detection; SEDFIT; both purified.

No constants are given. Whether binding was seen depends on the method and setting. Some binding calls cover weakened binding; strength is not graded here.

For the substance “YfiB(27–168) (from UniProt Q9I4L6 27-168) (domain or fragment)”, in assay [1], the binding entry was “binds weakly”.
As to “YfiB(59–168) (from UniProt Q9I4L6 59-168) (domain or fragment)”, the binding result in assay [2] was “no binding (tested: 10 mg ml^-1 (complex sample))”; in assay [3] it was “no binding”; in assay [4] it was “no binding (tested: 3 mg ml^-1)”.
